Experimental data reported in the supplement of paper PMC10849652.
The other results are listed elsewhere or left out.

Chains of the proteins cited; added tags and fusions are not shown. Lines headed by an entry give the natural chain unless they say otherwise; changes in a name come on top.
UniProt P48506: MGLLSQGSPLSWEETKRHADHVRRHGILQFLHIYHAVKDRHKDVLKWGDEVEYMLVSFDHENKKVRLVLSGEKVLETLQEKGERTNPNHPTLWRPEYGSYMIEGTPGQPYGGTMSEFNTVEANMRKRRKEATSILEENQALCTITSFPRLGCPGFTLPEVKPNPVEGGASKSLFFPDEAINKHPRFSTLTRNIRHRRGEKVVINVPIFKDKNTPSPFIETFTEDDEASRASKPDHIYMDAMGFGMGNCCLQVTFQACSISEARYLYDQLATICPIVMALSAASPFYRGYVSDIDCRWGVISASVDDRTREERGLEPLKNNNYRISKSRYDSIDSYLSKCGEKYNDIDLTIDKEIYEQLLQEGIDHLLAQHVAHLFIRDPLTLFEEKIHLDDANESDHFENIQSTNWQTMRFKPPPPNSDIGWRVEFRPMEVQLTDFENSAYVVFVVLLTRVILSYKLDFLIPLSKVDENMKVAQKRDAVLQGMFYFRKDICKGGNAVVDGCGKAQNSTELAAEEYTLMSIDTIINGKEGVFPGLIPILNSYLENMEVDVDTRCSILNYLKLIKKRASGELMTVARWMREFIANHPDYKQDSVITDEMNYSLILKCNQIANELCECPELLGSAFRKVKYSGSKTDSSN
UniProt Q96CU9: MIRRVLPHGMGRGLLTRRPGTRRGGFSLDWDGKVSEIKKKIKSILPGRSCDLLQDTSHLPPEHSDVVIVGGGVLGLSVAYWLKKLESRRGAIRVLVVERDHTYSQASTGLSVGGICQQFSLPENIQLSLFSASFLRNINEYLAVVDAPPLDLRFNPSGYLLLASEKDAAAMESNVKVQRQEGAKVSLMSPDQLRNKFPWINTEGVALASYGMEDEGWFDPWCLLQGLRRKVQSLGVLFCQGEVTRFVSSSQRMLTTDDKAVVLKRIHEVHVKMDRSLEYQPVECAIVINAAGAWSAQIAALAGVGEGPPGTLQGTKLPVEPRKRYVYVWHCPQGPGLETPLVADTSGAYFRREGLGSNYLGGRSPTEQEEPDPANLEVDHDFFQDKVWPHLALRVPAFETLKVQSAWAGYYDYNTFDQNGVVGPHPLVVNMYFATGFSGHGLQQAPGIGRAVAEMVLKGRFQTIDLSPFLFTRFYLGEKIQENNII
UniProt Q70Z53: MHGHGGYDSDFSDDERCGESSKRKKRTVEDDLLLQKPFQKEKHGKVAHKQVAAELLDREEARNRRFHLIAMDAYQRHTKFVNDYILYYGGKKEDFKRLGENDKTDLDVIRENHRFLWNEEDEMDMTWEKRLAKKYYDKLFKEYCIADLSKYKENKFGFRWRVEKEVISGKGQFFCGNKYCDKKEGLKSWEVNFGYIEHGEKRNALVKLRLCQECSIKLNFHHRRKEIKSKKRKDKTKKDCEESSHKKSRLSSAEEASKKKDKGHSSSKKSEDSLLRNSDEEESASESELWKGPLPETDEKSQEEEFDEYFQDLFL
UniProt Q92947: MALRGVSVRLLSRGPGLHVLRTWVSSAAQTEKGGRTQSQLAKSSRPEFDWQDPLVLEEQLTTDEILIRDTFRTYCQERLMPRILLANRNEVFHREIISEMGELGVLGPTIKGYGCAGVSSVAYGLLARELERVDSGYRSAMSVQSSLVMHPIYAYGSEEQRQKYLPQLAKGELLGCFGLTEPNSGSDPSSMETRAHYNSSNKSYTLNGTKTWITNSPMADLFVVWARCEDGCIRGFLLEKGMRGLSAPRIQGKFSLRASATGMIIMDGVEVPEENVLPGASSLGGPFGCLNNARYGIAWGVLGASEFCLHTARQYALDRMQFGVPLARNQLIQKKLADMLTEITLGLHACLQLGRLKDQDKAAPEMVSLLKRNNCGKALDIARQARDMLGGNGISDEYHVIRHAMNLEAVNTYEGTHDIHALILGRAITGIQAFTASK
UniProt P0CL80: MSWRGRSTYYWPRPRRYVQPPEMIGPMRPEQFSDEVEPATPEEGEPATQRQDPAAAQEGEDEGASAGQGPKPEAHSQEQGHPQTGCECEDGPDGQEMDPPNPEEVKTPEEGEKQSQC
UniProt Q9BTY2: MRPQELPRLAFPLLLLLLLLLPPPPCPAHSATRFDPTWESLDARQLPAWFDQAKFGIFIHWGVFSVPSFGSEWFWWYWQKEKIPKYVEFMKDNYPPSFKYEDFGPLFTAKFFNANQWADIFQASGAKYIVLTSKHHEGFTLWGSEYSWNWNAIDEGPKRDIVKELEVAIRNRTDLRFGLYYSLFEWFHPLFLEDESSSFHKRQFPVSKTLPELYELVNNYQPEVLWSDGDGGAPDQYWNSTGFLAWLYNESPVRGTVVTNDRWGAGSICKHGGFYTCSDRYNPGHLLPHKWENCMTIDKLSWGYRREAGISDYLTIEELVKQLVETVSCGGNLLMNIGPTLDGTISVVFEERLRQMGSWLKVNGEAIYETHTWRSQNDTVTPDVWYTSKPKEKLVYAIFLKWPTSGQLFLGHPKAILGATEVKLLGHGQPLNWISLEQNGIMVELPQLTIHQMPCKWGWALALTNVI
UniProt Q6NT46: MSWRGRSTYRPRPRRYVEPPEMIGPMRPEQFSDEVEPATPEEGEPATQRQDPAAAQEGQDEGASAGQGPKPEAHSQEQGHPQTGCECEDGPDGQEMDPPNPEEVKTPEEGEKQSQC
UniProt Q9UQC2, whole entry, looked up: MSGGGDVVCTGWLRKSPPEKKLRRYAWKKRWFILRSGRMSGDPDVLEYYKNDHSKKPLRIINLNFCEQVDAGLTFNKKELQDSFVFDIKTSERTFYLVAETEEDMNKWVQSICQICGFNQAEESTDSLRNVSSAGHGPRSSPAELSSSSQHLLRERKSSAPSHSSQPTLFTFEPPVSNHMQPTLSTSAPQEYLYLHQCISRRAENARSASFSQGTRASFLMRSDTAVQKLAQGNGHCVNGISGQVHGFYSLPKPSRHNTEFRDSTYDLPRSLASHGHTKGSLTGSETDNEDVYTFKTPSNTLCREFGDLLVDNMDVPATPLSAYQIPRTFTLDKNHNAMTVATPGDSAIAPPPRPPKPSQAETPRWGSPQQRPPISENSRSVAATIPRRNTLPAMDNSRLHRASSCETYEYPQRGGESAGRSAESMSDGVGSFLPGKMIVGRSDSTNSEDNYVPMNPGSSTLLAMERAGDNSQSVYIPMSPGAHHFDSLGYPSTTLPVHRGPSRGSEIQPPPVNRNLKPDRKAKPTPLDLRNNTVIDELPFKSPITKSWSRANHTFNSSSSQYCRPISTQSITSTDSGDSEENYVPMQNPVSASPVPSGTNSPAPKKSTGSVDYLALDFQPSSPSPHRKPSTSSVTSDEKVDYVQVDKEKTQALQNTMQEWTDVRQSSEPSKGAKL
UniProt O14976: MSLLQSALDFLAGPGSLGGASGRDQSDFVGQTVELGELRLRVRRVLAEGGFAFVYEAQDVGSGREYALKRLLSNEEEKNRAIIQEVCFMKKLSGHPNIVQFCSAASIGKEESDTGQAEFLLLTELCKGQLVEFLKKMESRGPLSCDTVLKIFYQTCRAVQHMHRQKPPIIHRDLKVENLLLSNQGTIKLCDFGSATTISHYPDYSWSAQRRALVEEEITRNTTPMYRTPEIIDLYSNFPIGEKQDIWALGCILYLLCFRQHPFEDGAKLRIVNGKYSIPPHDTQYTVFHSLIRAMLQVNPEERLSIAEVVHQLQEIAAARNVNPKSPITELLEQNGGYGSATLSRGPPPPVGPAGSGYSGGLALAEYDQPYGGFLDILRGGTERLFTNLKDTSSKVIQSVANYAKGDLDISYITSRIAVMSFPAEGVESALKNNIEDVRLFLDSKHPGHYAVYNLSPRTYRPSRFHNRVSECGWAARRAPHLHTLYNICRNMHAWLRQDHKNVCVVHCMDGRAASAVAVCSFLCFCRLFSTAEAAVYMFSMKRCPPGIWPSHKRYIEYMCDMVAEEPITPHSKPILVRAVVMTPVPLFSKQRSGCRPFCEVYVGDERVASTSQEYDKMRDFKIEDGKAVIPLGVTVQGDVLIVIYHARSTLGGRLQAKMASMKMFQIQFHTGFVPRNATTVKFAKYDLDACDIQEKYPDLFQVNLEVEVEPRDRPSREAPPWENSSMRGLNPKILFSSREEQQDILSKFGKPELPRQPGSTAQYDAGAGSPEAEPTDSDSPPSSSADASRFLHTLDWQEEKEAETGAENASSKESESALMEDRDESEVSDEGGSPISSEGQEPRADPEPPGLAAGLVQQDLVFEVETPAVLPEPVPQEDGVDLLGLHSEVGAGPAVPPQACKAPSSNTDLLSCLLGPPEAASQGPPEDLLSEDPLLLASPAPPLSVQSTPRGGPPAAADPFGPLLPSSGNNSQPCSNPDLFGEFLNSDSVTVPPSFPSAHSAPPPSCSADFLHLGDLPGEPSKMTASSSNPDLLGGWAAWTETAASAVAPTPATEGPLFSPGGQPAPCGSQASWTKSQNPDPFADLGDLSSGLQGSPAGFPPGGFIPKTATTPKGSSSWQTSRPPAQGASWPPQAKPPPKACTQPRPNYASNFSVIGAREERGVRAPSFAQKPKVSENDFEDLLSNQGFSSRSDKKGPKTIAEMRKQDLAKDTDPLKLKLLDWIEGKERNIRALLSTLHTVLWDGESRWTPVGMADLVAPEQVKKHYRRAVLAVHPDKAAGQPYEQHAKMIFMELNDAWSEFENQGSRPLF
UniProt Q6ZNW5: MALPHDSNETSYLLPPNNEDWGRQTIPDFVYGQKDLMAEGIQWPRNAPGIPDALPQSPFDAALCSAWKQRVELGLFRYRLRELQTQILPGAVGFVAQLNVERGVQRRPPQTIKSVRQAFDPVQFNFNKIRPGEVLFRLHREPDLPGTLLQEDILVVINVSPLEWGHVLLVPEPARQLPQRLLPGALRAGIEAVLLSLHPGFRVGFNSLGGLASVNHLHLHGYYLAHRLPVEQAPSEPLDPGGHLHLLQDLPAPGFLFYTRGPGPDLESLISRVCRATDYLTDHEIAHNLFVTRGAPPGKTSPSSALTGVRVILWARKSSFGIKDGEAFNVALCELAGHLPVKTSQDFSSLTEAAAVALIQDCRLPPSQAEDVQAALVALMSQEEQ
UniProt Q04446: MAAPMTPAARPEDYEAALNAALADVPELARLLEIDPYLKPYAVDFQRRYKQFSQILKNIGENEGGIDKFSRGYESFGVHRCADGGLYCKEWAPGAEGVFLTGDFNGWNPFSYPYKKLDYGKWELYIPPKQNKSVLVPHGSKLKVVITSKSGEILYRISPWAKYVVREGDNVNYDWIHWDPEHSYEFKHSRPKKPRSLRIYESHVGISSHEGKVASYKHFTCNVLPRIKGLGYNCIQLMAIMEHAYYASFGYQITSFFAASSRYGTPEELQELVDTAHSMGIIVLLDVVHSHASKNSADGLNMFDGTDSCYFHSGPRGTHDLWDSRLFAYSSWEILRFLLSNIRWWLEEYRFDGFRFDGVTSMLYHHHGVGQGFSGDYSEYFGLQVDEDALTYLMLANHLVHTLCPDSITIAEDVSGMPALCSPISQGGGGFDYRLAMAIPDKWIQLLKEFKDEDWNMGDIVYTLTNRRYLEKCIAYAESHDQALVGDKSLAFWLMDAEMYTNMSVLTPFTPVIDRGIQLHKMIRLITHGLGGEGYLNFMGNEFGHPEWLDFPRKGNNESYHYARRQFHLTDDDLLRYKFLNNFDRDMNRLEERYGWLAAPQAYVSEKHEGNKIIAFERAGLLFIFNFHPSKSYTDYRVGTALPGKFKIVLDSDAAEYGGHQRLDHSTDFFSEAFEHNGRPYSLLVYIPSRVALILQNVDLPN
UniProt Q13283, whole entry, looked up: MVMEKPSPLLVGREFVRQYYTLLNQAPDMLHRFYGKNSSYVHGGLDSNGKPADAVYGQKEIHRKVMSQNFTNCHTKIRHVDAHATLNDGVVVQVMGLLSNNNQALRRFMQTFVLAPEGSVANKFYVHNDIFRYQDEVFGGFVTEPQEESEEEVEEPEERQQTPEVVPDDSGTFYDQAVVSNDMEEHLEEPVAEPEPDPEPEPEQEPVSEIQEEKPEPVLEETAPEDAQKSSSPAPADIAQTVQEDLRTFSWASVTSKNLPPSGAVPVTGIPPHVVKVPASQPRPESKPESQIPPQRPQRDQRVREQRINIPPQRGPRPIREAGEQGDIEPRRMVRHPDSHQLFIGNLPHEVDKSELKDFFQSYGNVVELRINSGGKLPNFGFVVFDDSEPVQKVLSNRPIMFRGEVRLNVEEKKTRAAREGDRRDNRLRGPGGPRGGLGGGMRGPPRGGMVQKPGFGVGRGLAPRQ
UniProt P51570: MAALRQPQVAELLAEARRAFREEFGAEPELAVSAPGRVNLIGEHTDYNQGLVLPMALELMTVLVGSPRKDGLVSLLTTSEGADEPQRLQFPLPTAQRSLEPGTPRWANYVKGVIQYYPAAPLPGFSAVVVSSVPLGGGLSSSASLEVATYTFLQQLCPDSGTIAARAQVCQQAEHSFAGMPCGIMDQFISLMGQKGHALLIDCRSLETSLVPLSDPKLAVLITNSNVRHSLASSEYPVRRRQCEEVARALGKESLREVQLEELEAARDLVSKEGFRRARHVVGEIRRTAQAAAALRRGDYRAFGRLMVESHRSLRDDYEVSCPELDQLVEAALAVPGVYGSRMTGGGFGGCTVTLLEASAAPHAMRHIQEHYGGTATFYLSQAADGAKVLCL

Columns and labels:
Assay in all cases: log2 fold change, soluble protein after heating vs DMSO (PISA); higher = thermal stabilisation; K562 lysate, 10 uM; active = over 0.2 and 3.5 SD of the protein, either way, in both replicates (recomputed)
erlotinib = compound: C#Cc1cccc(Nc2ncnc3cc(OCCOC)c(OCCOC)cc23)c1 [erlotinib]
Method in brief: (§1)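 Pellets of K562 cells were dounce-homogenised in PBS pH 7.4 with 1 mM MgCl2, and the crude extract was held at 1 mg/mL protein for a 30 min treatment with 10 μM compound. Aliquots were heated for 3 min over 48°C-58°C and pooled before NP-40 was added to 0.5% at 4°C. The supernatant from 21,000xg for 90 min was quantified by TMTpro 16plex LC-MS/MS with channel sums equalised. Values are reported from duplicates as log-two fold change in thermal stability relative to solvent controls.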

[1] = compound: C/C(=N\NC(=O)C1=CC(=CC=C1)S(=O)(=O)N2CCOCC2)/C3=C(C=CC(=C3)Cl)O
Method in brief: as §1

[2] = compound: C1=CC(=CC=C1C2=NC3=C(N2)C=C(C=C3)C(=O)N)OC4=CC=C(C=C4)Cl
Method in brief: as §1

[3] = compound: C1=CC2=C(C=CC(=C2)/C=C\3/C(=O)NC(=NCC4=CC=CS4)S3)N=C1
Method in brief: as §1

[4] = compound: C1=CC2=NC=CN=C2C=C1/C=C/3\C(=O)NC(=O)S3
Method in brief: as §1

[5] = compound: C1=CC=C(C=C1)C2=NC(=C(N2)C3=CC=NC=C3)C4=CC(=C(C=C4)Cl)O
Method in brief: as §1

[6] = compound: C1=CC=C2C(=C1)C3=NNC4=CC=CC(=C43)C2=O
Method in brief: as §1

[7] = compound: C1CCN(C1)C(=O)NC2=CC=CC(=C2)NC3=NC=C(C(=N3)NCCC4=CN=CN4)Br
Method in brief: as §1

[8] = compound: C1CN(CCC1(CC2=CC=C(C=C2)Cl)N)C3=NC=NC4=C3C=CN4
Method in brief: as §1

IRAK-1-4 Inhibitor I = compound: C1COCCN1CCN2C3=CC=CC=C3N=C2NC(=O)C4=CC(=CC=C4)[N+](=O)[O-] [IRAK-1-4 Inhibitor I]
Method in brief: as §1

ibrutinib = compound: C=CC(=O)N1CCC[C@@H](n2nc(-c3ccc(Oc4ccccc4)cc3)c3c(N)ncnc32)C1 [ibrutinib]
Method in brief: as §1

[9] = compound: CC(=O)c1cnc2ccc(-c3cc(Cl)c(O)c(Cl)c3)nc2c1N[C@H]1CC[C@H](CN(C)C)CC1
Method in brief: as §1

ralimetinib = compound: CC(C)(C)Cn1c(N)nc2ccc(-c3[nH]c(C(C)(C)C)nc3-c3ccc(F)cc3)nc21 [ralimetinib]
Method in brief: as §1

[10] = compound: CC(C)(O)CC(=O)NCCn1ccc2ncnc(Nc3ccc(Oc4cccc(C(F)(F)F)c4)c(Cl)c3)c21
Method in brief: as §1

[11] = compound: CC(C)C1=C2N=C(C=C(N2N=C1)NCC3=CC=CC=C3)NCCCCCCN
Method in brief: as §1

[12] = compound: CC1=C(C(CC(=O)N1)C2=CC=C(C=C2)C(F)(F)F)C(=O)NC3=C(C=C4C(=C3)C=NN4)F
Method in brief: as §1

[13] = compound: CC1=C(C2=C(C=C1)C(=O)C3=CC=CC=C3N2CCCN)C
Method in brief: as §1

[14] = compound: CC1=C(C=C(C=C1)NC(=O)C2=CC(=CC=C2)C(C)(C)C#N)NC3=CC4=C(C=C3)N=CN(C4=O)C
Method in brief: as §1

[15] = compound: CC1=C(C=C(C=C1)NC(=O)C2=CC(=CC=C2)N(C)C)NC(=O)C3=CC=C(C=C3)O
Method in brief: as §1

[16] = compound: CC1=CC=C(C=C1)SC2=C3C=C(SC3=CN=C2)C(=O)N
Method in brief: as §1

Measured: log2 fold change

GCLC (UniProt P48506)
inactive: erlotinib -0.014 | [1] -0.027 | [2] 0.021 | [3] 0.038 | [4] -0.006 | [5] -0.01 | [6] -0.045 | [7] 0 | [8] 0.005 | IRAK-1-4 Inhibitor I 0.015 | ibrutinib -0.006 | [9] 0.014 | ralimetinib -0.008 | [10] -0.018 | [11] -0.007 | [12] -0.022 | [13] 0.004 | [14] -0.008 | [15] 0.026 | [16] 0.007

FOXRED1 (UniProt Q96CU9)
inactive: erlotinib 0.017 | [1] 0.053 | [2] 0.004 | [3] 0.035 | [4] 0.007 | [5] -0.008 | [6] -0.096 | [7] -0.028 | [8] 0.013 | IRAK-1-4 Inhibitor I 0.001 | ibrutinib -0.032 | [9] -0.03 | ralimetinib 0.001 | [10] -0.004 | [11] -0.009 | [12] -0.024 | [13] -0.008 | [14] 0.002 | [15] 0.039 | [16] -0.027

FRA10AC1 (UniProt Q70Z53)
inactive: erlotinib -0.001 | [1] 0.012 | [2] 0.018 | [3] 0.025 | [4] -0.011 | [5] 0.004 | [6] -0.015 | [7] -0.019 | [8] -0.011 | IRAK-1-4 Inhibitor I -0.011 | ibrutinib -0.025 | [9] 0.014 | ralimetinib -0.002 | [10] 0.025 | [11] -0.003 | [12] -0.002 | [13] 0.007 | [14] -0.015 | [15] -0.022 | [16] -0.057

FYCO1 isoform 4 (UniProt Q9BQS8)
inactive: erlotinib 0.029 | [1] 0.026 | [2] 0.014 | [3] -0.01 | [4] -0.019 | [5] -0.006 | [6] -0.016 | [7] -0.013 | [8] 0.009 | IRAK-1-4 Inhibitor I 0 | ibrutinib -0.012 | [9] -0.015 | ralimetinib 0.021 | [10] -0.026 | [11] 0 | [12] 0.029 | [13] -0.019 | [14] -0.003 | [15] -0.028 | [16] 0

GALC (UniProt P54803)
inactive: erlotinib 0.005 | [1] 0.04 | [2] 0.008 | [3] 0.043 | [4] -0.033 | [5] 0.001 | [6] -0.033 | [7] 0.031 | [8] 0.059 | IRAK-1-4 Inhibitor I -0.005 | ibrutinib 0.037 | [9] -0.006 | ralimetinib 0.087 | [10] -0.022 | [11] -0.006 | [12] 0.08 | [13] -0.005 | [14] 0.123 | [15] -0.052 | [16] 0.01

GCDH (UniProt Q92947)
inactive: erlotinib -0.038 | [1] 0.1 | [2] -0.023 | [3] 0.051 | [4] 0.089 | [5] -0.027 | [6] 0.009 | [7] 0 | [8] 0 | IRAK-1-4 Inhibitor I 0.011 | ibrutinib -0.046 | [9] 0.028 | ralimetinib -0.04 | [10] 0.014 | [11] -0.051 | [12] 0.069 | [13] -0.019 | [14] 0.086 | [15] -0.017 | [16] -0.03

GAGE12F (UniProt P0CL80)
inactive: erlotinib 0.021 | [1] -0.017 | [2] 0.07 | [3] 0.06 | [4] 0.047 | [5] -0.006 | [6] 0.033 | [7] 0.021 | [8] 0.083 | IRAK-1-4 Inhibitor I 0.047 | ibrutinib 0.074 | [9] -0.048 | ralimetinib 0.05 | [10] -0.079 | [11] 0.042 | [12] -0.026 | [13] -0.033 | [14] 0.03 | [15] 0.028 | [16] 0.004

FUCA2 (UniProt Q9BTY2)
inactive: erlotinib -0.014 | [1] 0.02 | [2] -0.002 | [3] 0 | [4] 0.004 | [5] 0.014 | [6] 0.01 | [7] 0.01 | [8] -0.013 | IRAK-1-4 Inhibitor I -0.006 | ibrutinib 0.029 | [9] 0.008 | ralimetinib -0.026 | [10] -0.021 | [11] 0.013 | [12] -0.016 | [13] -0.03 | [14] 0.006 | [15] -0.011 | [16] 0.046

GFM2 (UniProt Q969S9)
inactive: erlotinib -0.003 | [1] -0.159 | [2] -0.031 | [3] -0.031 | [4] 0.046 | [5] 0 | [6] -0.071 | [7] 0.022 | [8] 0.062 | IRAK-1-4 Inhibitor I -0.035 | ibrutinib -0.064 | [9] -0.035 | ralimetinib 0.03 | [10] -0.025 | [11] -0.02 | [12] -0.056 | [13] 0.037 | [14] -0.047 | [15] 0.08 | [16] -0.032

GAGE2A (UniProt Q6NT46)
inactive: erlotinib 0.058 | [1] -0.292 | [2] 0.019 | [3] -0.037 | [4] -0.02 | [5] 0.012 | [6] 0 | [7] 0.05 | [8] 0.085 | IRAK-1-4 Inhibitor I 0.032 | ibrutinib 0.036 | [9] -0.037 | ralimetinib 0.058 | [10] -0.065 | [11] -0.02 | [12] 0.025 | [13] -0.054 | [14] 0.03 | [15] -0.063 | [16] -0.006

GAB2 (UniProt Q9UQC2)
inactive: erlotinib -0.011 | [1] 0.014 | [2] 0.036 | [3] -0.035 | [4] -0.031 | [5] 0.012 | [6] 0.026 | [7] -0.075 | [8] 0.024 | IRAK-1-4 Inhibitor I -0.003 | ibrutinib 0.018 | [9] -0.034 | ralimetinib -0.006 | [10] -0.01 | [11] 0.021 | [12] -0.004 | [13] -0.018 | [14] 0.035 | [15] -0.014 | [16] -0.001

GAK (UniProt O14976)
inactive: erlotinib 0.323 | [1] -0.227 | [2] -0.063 | [3] 0.245 | [4] 0.006 | [5] 0.438 | [6] 0.356 | [7] 0.172 | [8] -0.174 | IRAK-1-4 Inhibitor I 0.317 | ibrutinib -0.055 | [9] 0.367 | ralimetinib 0.666 | [10] -0.065 | [11] -0.019 | [12] -0.108 | [13] -0.056 | [14] 0.14 | [15] -0.049 | [16] 0.141

GDPGP1 (UniProt Q6ZNW5)
inactive: erlotinib 0.061 | [1] 0.056 | [2] 0.011 | [3] 0.054 | [4] 0.022 | [5] -0.041 | [6] -0.003 | [7] -0.005 | [8] 0.011 | IRAK-1-4 Inhibitor I 0 | ibrutinib -0.042 | [9] 0.01 | ralimetinib -0.029 | [10] -0.013 | [11] -0.073 | [12] -0.012 | [13] 0.002 | [14] -0.103 | [15] 0.047 | [16] 0.007

GBE1 (UniProt Q04446)
inactive: erlotinib -0.062 | [1] 0.09 | [2] 0.032 | [3] -0.093 | [4] -0.03 | [5] 0.027 | [6] -0.007 | [7] -0.012 | [8] -0.003 | IRAK-1-4 Inhibitor I -0.013 | ibrutinib 0.015 | [9] 0.02 | ralimetinib -0.013 | [10] -0.001 | [11] -0.001 | [12] -0.025 | [13] 0.049 | [14] -0.033 | [15] 0.047 | [16] -0.02

G3BP1 (UniProt Q13283)
inactive: erlotinib -0.026 | [1] -0.094 | [2] -0.001 | [3] 0.003 | [4] -0.002 | [5] -0.022 | [6] 0.003 | [7] -0.008 | [8] -0.031 | IRAK-1-4 Inhibitor I -0.02 | ibrutinib -0.004 | [9] -0.003 | ralimetinib 0.03 | [10] -0.01 | [11] -0.024 | [12] 0.018 | [13] 0.032 | [14] -0.045 | [15] 0.002 | [16] 0.007

GALK1 isoform 2 (UniProt P51570)
inactive: erlotinib 0.021 | [1] 0.022 | [2] 0.01 | [3] -0.076 | [4] -0.024 | [5] -0.015 | [6] -0.031 | [7] 0.023 | [8] 0.058 | IRAK-1-4 Inhibitor I 0.042 | ibrutinib 0.002 | [9] 0.032 | ralimetinib -0.013 | [10] -0.001 | [11] -0.006 | [12] -0.021 | [13] -0.026 | [14] 0.002 | [15] -0.001 | [16] 0.04
